Source: patent publication US11510962B2 (Ferring B.V., priority 2012, dated 2022)

Experiment: solution-phase peptide synthesis
Conditions: whole synthesis, acetate (4.5 to 10 wt. % acetic acid)

Substance: degarelix
- final HPLC purity (run 1): 295%
- final HPLC purity (run 2): 297.5%
